Measurements reported in PubChem BioAssay AID192 (DTP/NCI, 2004).
The list shows only some results of the screen, not a fair sample: it is rich in T/C values a quarter to a half above the control, in often repeated tests (any T/C) and in doses without a T/C. Other doses and runs of a compound stand elsewhere. T/C is the treated group as % of the vehicle group. Some doses have a count of surviving animals in place of a T/C: the source files T/C as zero there, which appears to mark a toxic dose or a test without result, not a measured value. Some doses without a T/C left all or most animals alive at the check, yet need not have been tolerated: the source hardly ever lists a survival T/C far under the control, and the zero likely stands for such cases as well. Counts of survivors are from the toxicity check (mostly the fifth day) where no day follows; animals may have died later. Schedule codes are those of the source, read here as Q, the interval in days (D) or hours (H), X, the number of doses. Some doses were run more than once; their values stand side by side, smallest first. Some structures stand for samples that the source files as different forms (salt, stereo form or complex); doses refer to the form tested. Marks such as (2×) say how often a value occurs here. For survival time, this PubChem deposit counts one and a half times the control or more as active, and values a quarter to a half above the control carry no call in these data; other NCI protocols may use other cut-offs. Square brackets hold non-standard residues; d marks the D form. Peptide text beside a SMILES is read from it. * marks the point of attachment. ξ: configuration not given here. ξF = NC(Cc1ccccc1)C(=O)O; Bz = O=C(c1ccccc1)*

System: BDF1 mice, B16 melanoma ip, median survival T/C
Assay: NCI In Vivo Anticancer Drug Screen. Data for tumor model B16 Melanoma (intraperitoneal) in B6D2F1 (BDF1) mice
Details: T/C endpoint: median survival time, higher T/C = longer survival
Experimental: The antitumor activity of compounds was measured in mice bearing transplantable tumors. Survival or tumor size were measured and the results are expressed as the measurement made in the treated group (T) divided by the measurement made in the vehicle treated control group (C). The tumor model used in this assay is B16 Melanoma (intraperitoneal) in B6D2F1 (BDF1) mice

[1] = dose: 200.0 mg/kg/injection, schedule: Q01DX009 (ip), vehicle: saline
[2] = dose: 400.0 mg/kg/injection, schedule: Q01DX009 (ip), vehicle: saline
[3] = dose: 400.0 mg/kg/injection, schedule: Q01DX009 (ip), vehicle: Klucel (hydroxypropylcellulose) (HPC)
[4] = dose: 25.0 mg/kg/injection, schedule: Q01DX009 (ip), vehicle: Klucel (hydroxypropylcellulose) (HPC)
[5] = dose: 50.0 mg/kg/injection, schedule: Q01DX009 (ip), vehicle: Klucel (hydroxypropylcellulose) (HPC)
[6] = dose: 100.0 mg/kg/injection, schedule: Q01DX009 (ip), vehicle: Klucel (hydroxypropylcellulose) (HPC)
[7] = dose: 200.0 mg/kg/injection, schedule: Q01DX009 (ip), vehicle: Klucel (hydroxypropylcellulose) (HPC)

With O=C(CC(O)(C(F)(F)F)C(F)(F)F)c1ccccc1[N+](=O)[O-] the survivor count (dose: 1.5 mg/kg/injection, schedule: Q01DX009 (ip), vehicle: DMSO) was 10 of 10, the survivor count (dose: 3.0 mg/kg/injection, schedule: Q01DX009 (ip), vehicle: DMSO) was 10 of 10 and the survivor count (dose: 6.0 mg/kg/injection, schedule: Q01DX009 (ip), vehicle: DMSO) was 10 of 10. The survivor count (dose: 6.25 mg/kg/injection, schedule: Q01DX009 (ip), vehicle: DMSO) was 10 of 10, the survivor count (dose: 12.5 mg/kg/injection, schedule: Q01DX009 (ip), vehicle: DMSO) was 10 of 10 and the survivor count (dose: 25.0 mg/kg/injection, schedule: Q01DX009 (ip), vehicle: DMSO) was 10 of 10.

In the case of O=c1[nH]c2c(ccc3cnccc32)c2c1CCC2, the T/C (dose: 12.5 mg/kg/injection, schedule: Q01DX009 (ip), vehicle: suspension in saline) is reported as 125 % of control, the T/C (dose: 25.0 mg/kg/injection, schedule: Q01DX009 (ip), vehicle: suspension in saline) is reported as 125 % of control and the survivor count (dose: 50.0 mg/kg/injection, schedule: Q01DX009 (ip), vehicle: suspension in saline) is reported as 8 of 10. The survivor count (dose: 100.0 mg/kg/injection, schedule: Q01DX009 (ip), vehicle: suspension in saline) was 5 of 10.

O=C(CNC(=O)c1ccccc1)NCC(=O)NC(Cc1ccccc1)C(=O)O (stereo not drawn) (Bz-Gly-Gly-[ξF]-OH) was tested, and the survivor count (dose: 400.0 mg/kg/injection, schedule: Q01DX009 (ip), vehicle: saline with Tween-80) was 9 of 10.

In the case of CC1(C)N=C(N)N=C(N)N1c1ccc(CCC(=O)Nc2ccc(S(=O)(=O)F)cc2)cc1, the T/C (dose: 50.0 mg/kg/injection, schedule: Q01DX009 (ip), vehicle: saline) is reported as 138 % of control, the survivor count (dose: 100.0 mg/kg/injection, schedule: Q01DX009 (ip), vehicle: saline) is reported as 6 of 6 and the survivor count [1] is reported as 5 of 6. For the same compound, the survivor count [2] was 6 of 6.

O=NN(CCCl)C(=O)NC1CCC(=O)NC1=O (stereo unspecified) was tested, and the T/C (dose: 0.7 mg/kg/injection, schedule: Q01DX009 (ip), vehicle: saline) was 136 % of control, the survivor count (dose: 2.4 mg/kg/injection, schedule: Q01DX009 (ip), vehicle: saline) was 10 of 10 and the T/C (dose: 3.75 mg/kg/injection, schedule: Q01DX001 (ip), vehicle: saline + alcohol) was 147 % of control. The T/C (dose: 30.0 mg/kg/injection, schedule: Q01DX001 (ip), vehicle: saline + alcohol) was 125 % of control, the survivor count (dose: 32.0 mg/kg/injection, schedule: Q01DX009 (ip), vehicle: saline with Tween-80) was 9 of 10 and the survivor count (dose: 60.0 mg/kg/injection, schedule: Q01DX001 (ip), vehicle: saline + alcohol) was 10 of 10 on day 6.

With COc1cc(O)c2c(O)c3c(c4c2c1[C@]1(C4)C(C)=CCCC1(C)C)[C@H](O)[C@@]1(O)CC(=O)C(C(N)=O)=C(O)[C@@]1(O)C3=O the survivor count (dose: 12.0 mg/kg/injection, schedule: Q01DX009 (ip), vehicle: saline with Tween-80) was 5 of 6, the survivor count (dose: 24.0 mg/kg/injection, schedule: Q01DX009 (ip), vehicle: saline with Tween-80) was 0 of 6 and the survivor count (dose: 48.0 mg/kg/injection, schedule: Q01DX009 (ip), vehicle: saline with Tween-80) was 1 of 6.

With O=S(=O)(Nc1ccccc1)c1ccc(C2CC3(Cl)C(Cl)=C(Cl)C2(Cl)C3(Cl)Cl)cc1 (stereo unspecified) the survivor count [3] was 10 of 10.

With CCC[CH2][Sn]([Cl])([CH2]CCC)[S]C(=S)NCCNC(=S)[S][Sn]([Cl])([CH2]CCC)[CH2]CCC the survivor count [4] was 2 of 10.

For Cc1cccc(NC(=O)Nc2cccc3ccccc23)c1C, the survivor count [4] was 10 of 10, the survivor count [5] was 10 of 10 and the survivor count [6] was 10 of 10.

CCCN(CCC)C(C)C(O)c1cc2c(c3ccccc13)CCCC2 (stereo unspecified) was tested, and the survivor count [4] was 10 of 10, the survivor count [5] was 9 of 10 and the survivor count [6] was 6 of 10 and 10 of 10. The survivor count [7] was 10 of 10 and the survivor count [3] was 10 of 10.

In the case of Cc1cccc(C)c1NS(=O)(=O)c1ccc(Cl)cc1, the survivor count [7] is reported as 9 of 10.

For CN(C)N=Nc1ccc(S(N)(=O)=O)cc1, the survivor count [7] was 10 of 10.

OCc1ccccc1NCc1ccccc1 was tested, and the survivor count (dose: 200.0 mg/kg/injection, schedule: Q01DX009 (ip), vehicle: other) was 10 of 10.

With CC(C)c1cccc(C(C)C)c1OC(=O)Nc1ccccc1Cl the survivor count (dose: 400.0 mg/kg/injection, schedule: Q04DX003 (ip), vehicle: Klucel (hydroxypropylcellulose) (HPC)) was 6 of 10.

For O=c1[nH]c(=O)c2nc(-c3cccnc3)cnc2[nH]1, the survivor count [1] was 10 of 10 and the survivor count [2] was 10 of 10.

OC1CCCC2CCC[N-]C12.OC1CCCC2CCC[N-]C12.[Mn+2] (stereo unspecified) was tested, and the survivor count [3] was 4 of 10.

For O=C(C(=O)c1ccc(Br)cc1)c1ccc(Br)cc1, the survivor count [6] was 8 of 10, the survivor count [7] was 10 of 10 and the survivor count [3] was 10 of 10.

With COC1C(OC(=O)c2ccc(C)[nH]2)C(O)C(Oc2ccc3c(O)c(NC(=O)c4ccc(O)c(CC=C(C)C)c4)c(=O)oc3c2Cl)OC1(C)C (stereo unspecified) the survivor count (dose: 50.0 mg/kg/injection, schedule: Q01DX009 (ip), vehicle: other) was 8 of 10 and the survivor count (dose: 400.0 mg/kg/injection, schedule: Q01DX009 (ip), vehicle: other) was 8 of 10.

For CNC(Cc1ccccc1)c1ccc(OC)cc1 (stereo unspecified), the survivor count [7] was 7 of 10.

With COc1cc(NS(C)(=O)=O)ccc1Nc1c2ccccc2nc2c(C)cccc12 the T/C (dose: 1.25 mg/kg/injection, schedule: Q01DX009 (ip), vehicle: other) was 143 % of control, the T/C (dose: 2.5 mg/kg/injection, schedule: Q01DX009 (ip), vehicle: saline with Tween-80) was 132 and 147 % of control and the T/C (dose: 5.0 mg/kg/injection, schedule: Q01DX009 (ip), vehicle: saline with Tween-80) was 147 % of control. The T/C (dose: 5.0 mg/kg/injection, schedule: Q04DX003 (ip), vehicle: other) was 128 % of control, the survivor count (dose: 8.0 mg/kg/injection, schedule: Q01DX009 (ip), vehicle: saline) was 10 of 10 and the survivor count (dose: 10.0 mg/kg/injection, schedule: Q01DX009 (ip), vehicle: other) was 10 of 10. The survivor count (dose: 10.0 mg/kg/injection, schedule: Q01DX009 (ip), vehicle: saline with Tween-80) was 6 of 6 (2×), the survivor count (dose: 10.0 mg/kg/injection, schedule: Q04DX003 (ip), vehicle: other) was 10 of 10 and the survivor count (dose: 17.0 mg/kg/injection, schedule: Q01DX009 (ip), vehicle: Klucel (hydroxypropylcellulose) (HPC)) was 10 of 10. For the same compound, the survivor count (dose: 20.0 mg/kg/injection, schedule: Q01DX009 (ip), vehicle: other) was 9 of 10, the survivor count (dose: 20.0 mg/kg/injection, schedule: Q01DX009 (ip), vehicle: saline with Tween-80) was 6 of 6 (2×) and the survivor count (dose: 20.0 mg/kg/injection, schedule: Q04DX003 (ip), vehicle: other) was 10 of 10. For the same compound, the survivor count [4] was 9 of 10, the T/C (dose: 30.0 mg/kg/injection, schedule: Q01DX001 (ip), vehicle: saline sonified) was 133 % of control and the survivor count (dose: 37.0 mg/kg/injection, schedule: Q01DX009 (ip), vehicle: Klucel (hydroxypropylcellulose) (HPC)) was 9 of 10. For the same compound, the survivor count (dose: 40.0 mg/kg/injection, schedule: Q04DX003 (ip), vehicle: other) was 7 of 10, the survivor count (dose: 50.0 mg/kg/injection, schedule: Q04DX003 (ip), vehicle: Klucel (hydroxypropylcellulose) (HPC)) was 9 of 10 and the survivor count (dose: 100.0 mg/kg/injection, schedule: Q04DX003 (ip), vehicle: gum acacia) was 8 of 10. For the same compound, the survivor count (dose: 200.0 mg/kg/injection, schedule: Q04DX003 (ip), vehicle: gum acacia) was 6 of 10 and the survivor count (dose: 400.0 mg/kg/injection, schedule: Q04DX003 (ip), vehicle: gum acacia) was 0 of 10.

For CC1(C)N=C(N)N=C(N)N1c1ccc(CCCCc2ccc(Cl)c(S(=O)(=O)F)c2)c(Cl)c1, the survivor count (dose: 27.0 mg/kg/injection, schedule: Q01DX009 (ip), vehicle: saline) was 5 of 6 and the survivor count (dose: 40.0 mg/kg/injection, schedule: Q01DX009 (ip), vehicle: saline) was 0 of 6.

In the case of CC(=O)N(C(C)=O)c1ccc(N=Nc2ccccc2C)cc1C, the survivor count [6] is reported as 10 of 10 and the survivor count [3] is reported as 10 of 10.
